The results in this text go back to publication doi:10.1101/2021.05.24.445526.

The chains behind the UniProt entries cited, without tags or fusion partners.
UniProt P20963: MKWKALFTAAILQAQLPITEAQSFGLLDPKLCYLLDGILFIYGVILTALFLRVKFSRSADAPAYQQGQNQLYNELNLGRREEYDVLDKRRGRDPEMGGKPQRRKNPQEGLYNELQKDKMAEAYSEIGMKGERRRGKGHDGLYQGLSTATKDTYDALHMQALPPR
UniProt P29350: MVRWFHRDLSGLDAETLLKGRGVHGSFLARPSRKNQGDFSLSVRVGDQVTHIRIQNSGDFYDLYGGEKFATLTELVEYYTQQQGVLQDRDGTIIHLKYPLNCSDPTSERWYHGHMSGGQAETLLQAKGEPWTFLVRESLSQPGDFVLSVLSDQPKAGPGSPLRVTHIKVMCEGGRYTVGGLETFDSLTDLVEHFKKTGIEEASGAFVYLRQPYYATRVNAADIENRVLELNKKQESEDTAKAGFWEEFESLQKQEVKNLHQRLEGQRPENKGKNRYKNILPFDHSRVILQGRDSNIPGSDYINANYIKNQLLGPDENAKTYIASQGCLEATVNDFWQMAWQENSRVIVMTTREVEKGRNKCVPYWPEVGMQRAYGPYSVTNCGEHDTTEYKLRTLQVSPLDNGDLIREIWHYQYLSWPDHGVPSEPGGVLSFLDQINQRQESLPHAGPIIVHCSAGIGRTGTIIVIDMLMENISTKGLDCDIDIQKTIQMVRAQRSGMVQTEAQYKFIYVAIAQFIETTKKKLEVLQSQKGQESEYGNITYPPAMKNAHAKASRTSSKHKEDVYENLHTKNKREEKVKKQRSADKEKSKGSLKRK

The assay deals with TCR-ζ chain (human (endogenous in Jurkat)) (UniProt P20963). Description: co-IP.

These are yes or no findings as the source states them, for the method shown. In cells and extracts the contact can be indirect. Some results given as binding are weak or reduced against the parent protein; the word gives no strength.

Turning to SHP1 (from UniProt P29350 1-595), the binding result was “binds”.
